Assay results: article PMC10393194
These are yes or no findings as the source states them, for the method shown. Binding seen in cells or lysates may run through a third protein. A yes stands for co-enrichment or nearness to the bait. Other partners may have been found. Tags and fused reporters may be left off the sequences shown.

T1: Hpr1-TS (hpr1-TS/Sub2-FLAG-3C-ProtA yeast strain) (S. cerevisiae) (UniProt P17629)
T1 sequence: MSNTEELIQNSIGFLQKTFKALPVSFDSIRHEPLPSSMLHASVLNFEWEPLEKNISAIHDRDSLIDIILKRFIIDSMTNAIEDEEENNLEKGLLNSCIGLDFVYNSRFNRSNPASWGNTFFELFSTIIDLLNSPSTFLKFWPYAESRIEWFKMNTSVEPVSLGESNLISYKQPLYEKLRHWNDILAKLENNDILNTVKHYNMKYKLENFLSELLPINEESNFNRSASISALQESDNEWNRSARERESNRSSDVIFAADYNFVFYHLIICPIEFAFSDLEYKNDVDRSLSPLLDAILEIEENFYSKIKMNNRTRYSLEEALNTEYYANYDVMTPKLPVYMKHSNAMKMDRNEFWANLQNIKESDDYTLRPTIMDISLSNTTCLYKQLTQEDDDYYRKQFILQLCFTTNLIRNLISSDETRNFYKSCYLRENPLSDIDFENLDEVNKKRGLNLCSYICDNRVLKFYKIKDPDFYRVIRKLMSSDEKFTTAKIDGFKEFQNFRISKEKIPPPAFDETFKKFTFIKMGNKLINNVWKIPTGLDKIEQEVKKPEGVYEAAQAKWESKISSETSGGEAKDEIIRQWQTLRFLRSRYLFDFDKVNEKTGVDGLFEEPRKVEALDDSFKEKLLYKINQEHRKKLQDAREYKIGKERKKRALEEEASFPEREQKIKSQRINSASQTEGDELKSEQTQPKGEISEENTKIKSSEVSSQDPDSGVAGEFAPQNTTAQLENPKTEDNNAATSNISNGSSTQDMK

T2: Sub2-TS (hpr1-FLAG-3C-ProtA/Sub2-TS yeast strain) (S. cerevisiae) (UniProt Q07478)
T2 sequence: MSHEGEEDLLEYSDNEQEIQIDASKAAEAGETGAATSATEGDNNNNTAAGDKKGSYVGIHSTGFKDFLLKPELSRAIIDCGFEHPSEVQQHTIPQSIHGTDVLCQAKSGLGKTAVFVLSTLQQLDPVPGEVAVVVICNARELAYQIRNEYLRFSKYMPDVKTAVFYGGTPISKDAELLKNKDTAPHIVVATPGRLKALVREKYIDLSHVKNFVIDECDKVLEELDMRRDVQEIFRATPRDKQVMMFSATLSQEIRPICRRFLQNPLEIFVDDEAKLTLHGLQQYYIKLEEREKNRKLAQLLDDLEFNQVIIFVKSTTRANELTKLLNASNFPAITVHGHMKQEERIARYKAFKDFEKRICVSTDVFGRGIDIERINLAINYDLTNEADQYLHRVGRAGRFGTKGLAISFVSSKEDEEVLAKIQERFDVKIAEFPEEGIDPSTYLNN


Legend:
[1] = biological target: T1, Hpr1-TS (hpr1-TS/Sub2-FLAG-3C-ProtA yeast strain) (S. cerevisiae); assay: affinity purification with mass spectrometry; as the native two-step capture with iBAQ LC-MS/MS, with on-bead benzonase treatment prior to elution from the second affinity step; eluate and released fraction analysed
[2] = biological target: T1, Hpr1-TS (hpr1-TS/Sub2-FLAG-3C-ProtA yeast strain) (S. cerevisiae); assay: affinity purification with mass spectrometry; as the two-step affinity capture (Sub2-ProtA first, Hpr1-TS second), with RNase A/T1 mix treatment on beads prior to elution from the second affinity step; SDS eluates and unbound fractions on Coomassie-stained SDS-PAGE
[3] = biological target: T1, Hpr1-TS (hpr1-TS/Sub2-FLAG-3C-ProtA yeast strain) (S. cerevisiae); assay: affinity purification with mass spectrometry; two-step affinity capture from cryo-ground yeast lysate: protein A tag on anti-protein A IgG magnetic beads, 3C protease elution, then Twin-Strep tag on Strep-Tactin beads (porous or nonporous); 50 mM potassium phosphate pH 8, 0.1% NP40, 4°C; SDS eluates on Coomassie-stained SDS-PAGE, bands identified by peptide mass fingerprinting
[4] = biological target: T2, Sub2-TS (hpr1-FLAG-3C-ProtA/Sub2-TS yeast strain) (S. cerevisiae); assay: as above

Binder | binding [1] | binding [2] | binding [3] | binding [4]
Sub2-FLAG-3C-ProtA (hpr1-TS/Sub2-FLAG-3C-ProtA yeast strain) (protein, UniProt Q07478 1-446) MSHEGEEDLLEYSDNEQEIQIDASKAAEAGETGAATSATEGDNNNNTAAGDKKGSYVGIHSTGFKDFLLKPELSRAIIDCGFEHPSEVQQHTIPQSIHGTDVLCQAKSGLGKTAVFVLSTLQQLDPVPGEVAVVVICNARELAYQIRNEYLRFSKYMPDVKTAVFYGGTPISKDAELLKNKDTAPHIVVATPGRLKALVREKYIDLSHVKNFVIDECDKVLEELDMRRDVQEIFRATPRDKQVMMFSATLSQEIRPICRRFLQNPLEIFVDDEAKLTLHGLQQYYIKLEEREKNRKLAQLLDDLEFNQVIIFVKSTTRANELTKLLNASNFPAITVHGHMKQEERIARYKAFKDFEKRICVSTDVFGRGIDIERINLAINYDLTNEADQYLHRVGRAGRFGTKGLAISFVSSKEDEEVLAKIQERFDVKIAEFPEEGIDPSTYLNN | binds | binds | binds | 
Hpr1-FLAG-3C-ProtA (hpr1-FLAG-3C-ProtA/Sub2-TS yeast strain) (protein, UniProt P17629 1-752) MSNTEELIQNSIGFLQKTFKALPVSFDSIRHEPLPSSMLHASVLNFEWEPLEKNISAIHDRDSLIDIILKRFIIDSMTNAIEDEEENNLEKGLLNSCIGLDFVYNSRFNRSNPASWGNTFFELFSTIIDLLNSPSTFLKFWPYAESRIEWFKMNTSVEPVSLGESNLISYKQPLYEKLRHWNDILAKLENNDILNTVKHYNMKYKLENFLSELLPINEESNFNRSASISALQESDNEWNRSARERESNRSSDVIFAADYNFVFYHLIICPIEFAFSDLEYKNDVDRSLSPLLDAILEIEENFYSKIKMNNRTRYSLEEALNTEYYANYDVMTPKLPVYMKHSNAMKMDRNEFWANLQNIKESDDYTLRPTIMDISLSNTTCLYKQLTQEDDDYYRKQFILQLCFTTNLIRNLISSDETRNFYKSCYLRENPLSDIDFENLDEVNKKRGLNLCSYICDNRVLKFYKIKDPDFYRVIRKLMSSDEKFTTAKIDGFKEFQNFRISKEKIPPPAFDETFKKFTFIKMGNKLINNVWKIPTGLDKIEQEVKKPEGVYEAAQAKWESKISSETSGGEAKDEIIRQWQTLRFLRSRYLFDFDKVNEKTGVDGLFEEPRKVEALDDSFKEKLLYKINQEHRKKLQDAREYKIGKERKKRALEEEASFPEREQKIKSQRINSASQTEGDELKSEQTQPKGEISEENTKIKSSEVSSQDPDSGVAGEFAPQNTTAQLENPKTEDNNAATSNISNGSSTQDMK |  |  |  | binds
